Entries after “also recorded” stand apart in the source; their conditions may differ. For at least one compound, name, drawing or mass did not settle the structure.
How the values were obtained:
[1] = test system: isolated rat liver mitochondria; assay: FACS analysis of ΔΨm and ROS in isolated mitochondria
Experimental: Measurement of ΔΨm and ROS Production by FACS Analysis. ΔΨm and ROS production were measured by FACScan (Becton Dickinson, San Jose, Calif.) analysis. Freshly isolated rat mitochondria were resuspended in respiration buffer (50-100 μg/ml) and then incubated for 15 min at 37° C. with 50 nM 3,3′-dihexyloxacarbocyanine iodide [DiOC6(3)],2 μM dihydroethidium (HE), or 5 μM 2′,7′-dichlorofluorescin diacetate (H2DCFDA; Molecular Probes Inc.) (Cathcart et al., Anal. Biochem., 134, 111-116 (1983); Carter et al., J. Leukoycte Biol, 55, 253-258 (1994); Zamzami et al., J. Exp. Med., 181 1661-1672 (1995)). Mitochondria were then treated with DCA (100 μM) or PhAsO (80 μM) for 5 min and analyzed by cytofluorometry. For the coincubation studies, mitochondria were preincubated with UDCA (500 μM) or HDCA (500 μM) prior to the addition of either DCA or PhAsO.

hepatocytes = assay: TUNEL assay in liver of rats fed bile acids; type: in vivo, rat; conditions: DCA and UDCA combined in the diet, 10 days
Text: Animals and diets. Male 160-175 gram (g) Sprague-Dawley rats (Sprague-Dawley, Indianapolis, Ind.) were maintained on a 12-hour (h) light-dark cycle and fed standard laboratory chow ad libitum for 3 days. […] On day 10, the animals were sacrificed by exsanguination under ether anesthesia between 9 a.m. and 11 a.m. The livers were removed, rinsed in normal saline, and flash-frozen in liquid nitrogen. Liver tissue samples were embedded in OCT, and 5 μm-thick cryostat sections were cut and mounted on slides. […] All animals received human care in compliance with the Guide for the Care and use of Laboratory Animals, prepared by the National Academy of Sciences (NIH Publication No. 86-23, revised 1985). Terminal transferase-mediated dUTP-digoxigenin nick end labeling (TUNEL) assay. Digoxigenin-nucleotide residues were added to 3′-OH ends of double or single-stranded DNA by terminal deoxynucleotidyl transferase. Reactions were performed according to the manufacturer's recommendations (Oncor, Inc., Gaithersburg, Md.), and the specimens were then coversliped with Permount medium (Fischer Scientific, Inc., Itasca, Ill.) prior to analysis by phase-contrast microscopy using a Nikon microscope (Nikon, Inc., Melville, N.Y.). Photographs were taken using Kodak Ektar-1000 film (Eastman Kodak Co., Rochester, N.Y.).

Hep G2 cells = assay: Anti-Fas antibody-induced apoptosis, Hep G2 cells; type: cell-based; conditions: UDCA + anti-Fas antibody, 48 h
Experimental: (§1) Incubation of cells with ethanol, TGF-β1, anti-Fas antibody or okadaic acid. Freshly isolated rat hepatocytes were cultured for 3 h as described above and then incubated with William's E medium supplemented with either 0.5% ethanol, 50 μM UDCA, ethanol plus UDCA, or no addition (control) for 2 h and 4 h. HuH-7 cells were incubated with Dulbecco's medium supplemented with either 1 nM TGF-β1 (R & D Systems, Minneapolis, Minn.), 100 μM UDCA, TGF-β1+UDCA, or no addition (control) for 24 h, 48 h, and 72 h. Hep G2 cells were incubated with Dulbecco's medium supplemented with either 0.5 μg/ml of anti-Fas antibody CH-11 (Upstate Biotechnology, Inc., Lake Placid, N.Y.), 100 μM UDCA, CH-11+UDCA, or no addition for 48 h. Both HuH-7 cells and human osteogenic sarcoma Saos-2 cells were cultured in Dulbecco's medium supplemented with either 50 nM okadaic acid (Boehringer Mannheim Biochemicals, Inc, Indianapolis, Ind.), 100 μM UDCA, okadaic acid+UDCA, or no addition for 48 h. […]
(§2) Morphological evaluation of apoptosis. […] Fluorescence was visualized with a Zeiss standard fluorescence microscope (Carl Zeiss, Inc., Thornwood, N.Y.). […] Stained nuclei were scored by blind analysis and categorized according to the condensation and staining characteristics of chromatin. […] Three fields per dish of approximately 500 nuclei were counted; mean values are expressed as the percent of apoptotic nuclei.

primary rat hepatocytes = assay: Ethanol-induced apoptosis, Hoechst staining, primary rat hepatocytes; type: cell-based; conditions: coincubation with 0.5% ethanol
Experimental: as §1, §2

In the case of C[C@H](CCC(=O)O)[C@H]1CC[C@H]2[C@@H]3[C@@H](O)C[C@@H]4C[C@H](O)CC[C@]4(C)[C@H]3CC[C@]12C [UDCA, ursodeoxycholic acid], the “effect on PhAsO-induced mitochondrial perturbation” value ([1]; 80 μM PhAsO + 500 μM UDCA) is reported as “significant inhibition of mitochondrial perturbation”, the “effect on DCA-mediated changes in ΔΨm and ROS production” value ([1]; 100 μM DCA, 500 μM bile acid pretreatment) is reported as “significant inhibition of mitochondrial perturbation” and the “percentage of other ROS” value ([1]; 500 μM UDCA alone) is reported as “slightly decreased the percentage of other ROS”. For the same compound, the “ΔΨm compared to controls” value ([1]; 500 μM UDCA alone) was “no significant changes in ΔΨm”, the “inhibition of apoptosis associated with DCA” value (hepatocytes) was “completely inhibited cell death by apoptosis” and the apoptosis versus control (Hep G2 cells) was “No significant changes; also recorded: no significant increase in apoptosis over control values”. For the same compound, the “effect on ethanol-induced apoptosis” value (primary rat hepatocytes) was “protected against ethanol-induced apoptosis”.

From patent publication US20030044413A1, “Methods of limiting apoptosis of cells” (Regents of the University of Minnesota, priority 1998, published 2003)
